{"source": "patent US6160202", "test_system": "T1, ROM1 (PvbZIP1, PvSF1) (Phaseolus vulgaris)", "T1 sequence (limits assumed)": "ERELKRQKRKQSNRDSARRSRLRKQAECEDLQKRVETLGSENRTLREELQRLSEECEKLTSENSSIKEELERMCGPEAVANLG", "assay": "footprint", "details": "bZIP1 produced only weak footprints on UAS1; purified recombinant protein; protein details: His6, E. coli, pET15b, Ni-agarose", "note": "A weaker result is weaker than the reference pair of the same experiment. Tags and fusion partners may be left off the protein sequences shown."}
{"sequence": "GCGTGTCAT (double strand) [phaseolin site C]", "values": [{"measurement": "binding result", "value": "binds more weakly"}]}
